# From PubChem BioAssay AID588590 (National Center for Advancing Translational Sciences (NCATS), 2011)
# Chains of the proteins cited; added tags and fusions are not shown. Lines headed by an entry give the natural chain unless they say otherwise; changes in a name come on top.
# UniProt Q9UNA4: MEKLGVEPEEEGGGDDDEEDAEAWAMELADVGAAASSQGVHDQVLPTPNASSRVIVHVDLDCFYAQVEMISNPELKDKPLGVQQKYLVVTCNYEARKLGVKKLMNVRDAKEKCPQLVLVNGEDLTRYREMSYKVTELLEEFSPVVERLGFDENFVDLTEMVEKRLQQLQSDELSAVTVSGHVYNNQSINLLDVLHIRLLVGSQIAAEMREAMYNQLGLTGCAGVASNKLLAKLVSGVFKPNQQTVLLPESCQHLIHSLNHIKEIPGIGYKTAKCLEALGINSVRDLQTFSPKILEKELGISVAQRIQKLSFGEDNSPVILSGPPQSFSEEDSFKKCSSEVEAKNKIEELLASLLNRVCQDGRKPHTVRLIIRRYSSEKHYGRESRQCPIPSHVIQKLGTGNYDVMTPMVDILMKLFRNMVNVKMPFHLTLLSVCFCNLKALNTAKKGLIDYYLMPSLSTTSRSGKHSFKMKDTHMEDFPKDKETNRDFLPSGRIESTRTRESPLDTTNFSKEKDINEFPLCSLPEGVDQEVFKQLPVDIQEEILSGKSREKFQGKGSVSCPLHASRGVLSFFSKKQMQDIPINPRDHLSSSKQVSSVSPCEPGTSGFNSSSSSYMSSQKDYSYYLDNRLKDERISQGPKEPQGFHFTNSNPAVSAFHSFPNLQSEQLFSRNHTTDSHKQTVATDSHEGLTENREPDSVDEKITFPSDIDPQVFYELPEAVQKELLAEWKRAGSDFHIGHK
# Hit rate of the full screen: of about 390,000 compounds, about 4,000 (1%) were called active. The inconclusive results got no clear call from the source; some entries with a clear call stand among them for comparison. Calls follow the shape of the dose curve; as a rule, active = well fitted inhibition curve with a large enough effect; inconclusive = small, poorly fitted or top-dose-only effect, or another doubt; inactive = no such curve, though single readings can be large or run the other way. Where the call is inconclusive, the potency comes from a doubtful curve fit.
# Target: DNA polymerase iota (Homo sapiens) (UniProt Q9UNA4)
# Experiment: qHTS for Inhibitors of Polymerase Iota
# Details: Pol iota fluorescent replication assay, 10 min; series mostly up to 115 µM
# Outline: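 Pol iota at 10 nM preincubated 15 min with compounds at room temperature; reaction started with fluorescent substrate, 50 nM final. Fluorescence read kinetically at 0 and 10 min; buffer-only wells as negative control.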
# Potency is read from the fitted curve at half-maximal effect.
row,SMILES,Potency
1,Cn1c2ccccc2c(=O)c2ccc(C#Cc3ccccn3)cc21,active: 31.6 µM
2,CC(=O)Nc1ccc2nc3c(=O)[nH]c(=O)[nH]c3nc2c1,active: 8.91 µM
3,CCN(C[C@H]1N[C@@](C)(C(=O)OC)[C@H]2C(=O)N(C)C(=O)[C@@H]12)C(=O)c1ccccc1,"inconclusive: 28.2 µM [inhibitor, partial curve, poor fit]"
4,CS(=O)(=O)N(CC(=O)Nc1ccccc1-c1ccccc1)c1ccc(F)cc1,"inconclusive: 63.1 µM [inhibitor, partial curve, poor fit]"
5,O=C(CCc1nnc2ccc(NCc3ccco3)nn12)N1CCN(c2ccccc2)CC1,active: 20 µM
6,CCC(C)[C@H](NC(=O)OC(C)(C)C)C(=O)N/N=C/c1cccc2nccnc12 (some centres undefined),"inconclusive: 112 µM [inhibitor, single point]"
7,O=C(NCC(c1ccc2c(c1)OCO2)N1CCOCC1)c1cccc(Cl)c1 (centres undefined),inactive
8,COc1ccc2c(C)cc(SCC(=O)Nc3nsc(-c4ccccc4C)n3)nc2c1,"inconclusive: 100 µM [inhibitor, partial curve, poor fit]"
9,COc1cc(CNc2ccc3c(c2)OCCO3)ccc1OCC(N)=O,"inconclusive: 7.94 µM [inhibitor, partial curve]"
10,O=[N+]([O-])c1cccc(N=Nc2ccc(O)cc2O)c1,"inconclusive: 11.2 µM [inhibitor, partial curve]"
11,NS(=O)(=O)c1ccc(NC(=O)C2CCCO2)cc1 (centres undefined),"inconclusive: 89.1 µM [inhibitor, partial curve, poor fit]"
12,Cc1cc(NC(=O)CSc2ccc3ccccc3c2)no1,"inconclusive: 17.8 µM [inhibitor, full curve, poor fit]"
13,O=C(N/N=C/c1ccccn1)c1cccs1,"inconclusive: 15.8 µM [inhibitor, partial curve, poor fit]"
14,Oc1ccc(-c2nc3ncccn3c2Nc2ccc3c(c2)OCO3)cc1,"inconclusive: 39.8 µM [inhibitor, single point]"
15,COc1ccc(N(CC(=O)NCCSCc2ccco2)S(=O)(=O)c2ccc(C)cc2)cc1,"inconclusive: 89.1 µM [inhibitor, single point]"
16,CCOC(=O)N1CCc2c(sc(NCc3sccc3C)c2C(=O)Nc2ccc(OC)cc2OC)C1,"inconclusive: 89.1 µM [inhibitor, single point]"
17,CC(Oc1ccc(F)cc1)C(=O)N1CCC(c2nc3ccccc3s2)CC1 (centres undefined),inactive
18,CCCOc1cc(N)ccc1C(=O)OCCN(CC)CC,inactive
19,NC1=C(Br)C(=O)c2ncccc2C1=O,active: 11.2 µM

# Part of the list above, as tab-separated lines.
row	SMILES	Potency
13	O=C(N/N=C/c1ccccn1)c1cccs1	inconclusive: 15.8 µM [inhibitor, partial curve, poor fit]
14	Oc1ccc(-c2nc3ncccn3c2Nc2ccc3c(c2)OCO3)cc1	inconclusive: 39.8 µM [inhibitor, single point]
